Reference: the supplement of paper PMC10849652
This is one part of the list.

Chains of the proteins cited; added tags and fusions are not shown. Lines headed by an entry give the natural chain unless they say otherwise; changes in a name come on top.
UniProt P61647: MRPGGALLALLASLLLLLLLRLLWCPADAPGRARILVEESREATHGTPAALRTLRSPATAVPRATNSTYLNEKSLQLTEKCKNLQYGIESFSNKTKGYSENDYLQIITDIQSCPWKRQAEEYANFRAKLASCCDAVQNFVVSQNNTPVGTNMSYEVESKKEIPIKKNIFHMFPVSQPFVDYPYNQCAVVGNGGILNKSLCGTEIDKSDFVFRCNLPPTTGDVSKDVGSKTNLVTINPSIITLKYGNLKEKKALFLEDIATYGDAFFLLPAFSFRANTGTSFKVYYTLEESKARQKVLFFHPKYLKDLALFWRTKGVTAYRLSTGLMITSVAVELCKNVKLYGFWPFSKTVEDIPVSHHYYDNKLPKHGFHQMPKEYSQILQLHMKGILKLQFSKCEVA
UniProt Q9Y6E0: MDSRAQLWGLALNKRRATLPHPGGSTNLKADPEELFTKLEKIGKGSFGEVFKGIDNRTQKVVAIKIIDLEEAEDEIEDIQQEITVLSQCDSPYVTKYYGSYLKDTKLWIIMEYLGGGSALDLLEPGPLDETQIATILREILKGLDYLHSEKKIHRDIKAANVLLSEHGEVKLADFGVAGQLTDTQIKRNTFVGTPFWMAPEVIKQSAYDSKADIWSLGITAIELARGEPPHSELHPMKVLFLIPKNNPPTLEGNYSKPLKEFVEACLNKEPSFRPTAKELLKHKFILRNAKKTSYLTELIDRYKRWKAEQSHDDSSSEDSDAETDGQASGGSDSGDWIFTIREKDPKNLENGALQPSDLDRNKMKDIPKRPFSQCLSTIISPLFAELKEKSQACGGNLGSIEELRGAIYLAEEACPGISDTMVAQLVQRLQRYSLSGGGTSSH
UniProt O43278: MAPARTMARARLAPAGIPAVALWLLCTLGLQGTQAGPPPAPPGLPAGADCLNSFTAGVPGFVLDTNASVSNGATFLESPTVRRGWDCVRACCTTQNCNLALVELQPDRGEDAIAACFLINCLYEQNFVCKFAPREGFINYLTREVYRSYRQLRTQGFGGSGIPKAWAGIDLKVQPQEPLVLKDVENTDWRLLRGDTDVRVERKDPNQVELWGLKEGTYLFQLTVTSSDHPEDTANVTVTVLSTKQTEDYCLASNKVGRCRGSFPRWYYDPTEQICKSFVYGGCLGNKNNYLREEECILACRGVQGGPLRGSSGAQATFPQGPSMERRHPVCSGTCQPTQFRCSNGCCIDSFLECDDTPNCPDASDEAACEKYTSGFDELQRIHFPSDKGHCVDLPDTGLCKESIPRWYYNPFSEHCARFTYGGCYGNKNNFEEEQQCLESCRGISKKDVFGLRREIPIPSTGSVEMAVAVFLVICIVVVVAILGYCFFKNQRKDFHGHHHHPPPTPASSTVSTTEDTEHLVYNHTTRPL
UniProt Q08AE8, whole entry, looked up: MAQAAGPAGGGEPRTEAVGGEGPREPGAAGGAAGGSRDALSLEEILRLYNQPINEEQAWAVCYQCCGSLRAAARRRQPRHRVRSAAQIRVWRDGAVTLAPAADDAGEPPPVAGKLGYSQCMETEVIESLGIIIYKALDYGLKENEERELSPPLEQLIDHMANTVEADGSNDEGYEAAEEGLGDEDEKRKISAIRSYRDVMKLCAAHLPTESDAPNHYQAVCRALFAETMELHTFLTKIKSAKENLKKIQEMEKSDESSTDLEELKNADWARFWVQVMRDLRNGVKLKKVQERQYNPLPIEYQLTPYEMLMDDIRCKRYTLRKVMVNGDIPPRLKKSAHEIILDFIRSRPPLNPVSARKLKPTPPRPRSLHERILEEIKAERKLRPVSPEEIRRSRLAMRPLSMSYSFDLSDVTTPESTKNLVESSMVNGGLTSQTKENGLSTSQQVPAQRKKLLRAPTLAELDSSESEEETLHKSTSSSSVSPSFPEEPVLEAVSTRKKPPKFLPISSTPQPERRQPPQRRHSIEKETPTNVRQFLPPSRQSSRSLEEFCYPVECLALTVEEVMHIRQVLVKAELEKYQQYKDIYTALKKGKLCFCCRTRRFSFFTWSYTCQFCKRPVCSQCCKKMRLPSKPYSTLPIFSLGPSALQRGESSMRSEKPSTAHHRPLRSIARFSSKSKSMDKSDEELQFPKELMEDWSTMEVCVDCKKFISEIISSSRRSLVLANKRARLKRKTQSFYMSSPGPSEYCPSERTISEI
UniProt P35325: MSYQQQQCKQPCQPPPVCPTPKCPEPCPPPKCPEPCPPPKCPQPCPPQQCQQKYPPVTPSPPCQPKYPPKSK
UniProt Q7Z698: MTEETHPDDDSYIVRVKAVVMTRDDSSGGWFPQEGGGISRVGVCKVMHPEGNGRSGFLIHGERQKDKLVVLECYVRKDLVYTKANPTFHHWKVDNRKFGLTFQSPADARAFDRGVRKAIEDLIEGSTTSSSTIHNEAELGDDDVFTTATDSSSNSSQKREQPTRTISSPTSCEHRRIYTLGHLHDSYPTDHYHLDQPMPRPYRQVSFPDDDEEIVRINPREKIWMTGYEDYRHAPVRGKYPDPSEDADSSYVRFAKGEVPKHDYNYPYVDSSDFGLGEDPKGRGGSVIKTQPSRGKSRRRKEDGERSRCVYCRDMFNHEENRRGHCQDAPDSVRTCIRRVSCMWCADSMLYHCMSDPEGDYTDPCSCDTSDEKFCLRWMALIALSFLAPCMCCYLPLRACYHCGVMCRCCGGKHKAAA
UniProt Q12772: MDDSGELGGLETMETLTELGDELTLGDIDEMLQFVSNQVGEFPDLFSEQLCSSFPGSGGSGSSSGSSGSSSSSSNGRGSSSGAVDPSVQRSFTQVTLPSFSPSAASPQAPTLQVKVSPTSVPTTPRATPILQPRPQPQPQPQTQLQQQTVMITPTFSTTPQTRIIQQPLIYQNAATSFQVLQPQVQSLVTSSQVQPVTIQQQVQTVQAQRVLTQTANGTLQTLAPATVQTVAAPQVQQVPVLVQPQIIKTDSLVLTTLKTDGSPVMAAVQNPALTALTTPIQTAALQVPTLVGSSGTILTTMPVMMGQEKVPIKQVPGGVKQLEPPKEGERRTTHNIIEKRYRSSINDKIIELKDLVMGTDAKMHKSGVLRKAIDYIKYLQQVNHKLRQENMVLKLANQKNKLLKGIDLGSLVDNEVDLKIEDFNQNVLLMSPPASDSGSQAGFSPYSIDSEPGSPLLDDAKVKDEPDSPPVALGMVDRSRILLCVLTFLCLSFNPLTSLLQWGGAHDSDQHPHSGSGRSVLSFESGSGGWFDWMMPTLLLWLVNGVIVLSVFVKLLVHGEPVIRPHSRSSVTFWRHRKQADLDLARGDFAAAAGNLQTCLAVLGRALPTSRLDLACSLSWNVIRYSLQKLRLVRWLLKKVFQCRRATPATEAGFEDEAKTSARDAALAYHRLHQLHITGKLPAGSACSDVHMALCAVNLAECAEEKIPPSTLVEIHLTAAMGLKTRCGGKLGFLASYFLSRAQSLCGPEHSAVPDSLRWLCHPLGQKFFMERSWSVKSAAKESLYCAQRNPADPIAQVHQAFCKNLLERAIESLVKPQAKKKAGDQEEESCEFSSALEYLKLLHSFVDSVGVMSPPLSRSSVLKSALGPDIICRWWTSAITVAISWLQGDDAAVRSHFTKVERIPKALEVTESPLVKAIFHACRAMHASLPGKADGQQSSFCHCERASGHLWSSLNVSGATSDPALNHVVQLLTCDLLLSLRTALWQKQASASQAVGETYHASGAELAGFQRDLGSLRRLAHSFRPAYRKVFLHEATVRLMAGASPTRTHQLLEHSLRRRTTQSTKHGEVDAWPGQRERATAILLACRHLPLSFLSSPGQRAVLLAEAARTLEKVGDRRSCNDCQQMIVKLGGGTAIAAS
UniProt Q8N5C6: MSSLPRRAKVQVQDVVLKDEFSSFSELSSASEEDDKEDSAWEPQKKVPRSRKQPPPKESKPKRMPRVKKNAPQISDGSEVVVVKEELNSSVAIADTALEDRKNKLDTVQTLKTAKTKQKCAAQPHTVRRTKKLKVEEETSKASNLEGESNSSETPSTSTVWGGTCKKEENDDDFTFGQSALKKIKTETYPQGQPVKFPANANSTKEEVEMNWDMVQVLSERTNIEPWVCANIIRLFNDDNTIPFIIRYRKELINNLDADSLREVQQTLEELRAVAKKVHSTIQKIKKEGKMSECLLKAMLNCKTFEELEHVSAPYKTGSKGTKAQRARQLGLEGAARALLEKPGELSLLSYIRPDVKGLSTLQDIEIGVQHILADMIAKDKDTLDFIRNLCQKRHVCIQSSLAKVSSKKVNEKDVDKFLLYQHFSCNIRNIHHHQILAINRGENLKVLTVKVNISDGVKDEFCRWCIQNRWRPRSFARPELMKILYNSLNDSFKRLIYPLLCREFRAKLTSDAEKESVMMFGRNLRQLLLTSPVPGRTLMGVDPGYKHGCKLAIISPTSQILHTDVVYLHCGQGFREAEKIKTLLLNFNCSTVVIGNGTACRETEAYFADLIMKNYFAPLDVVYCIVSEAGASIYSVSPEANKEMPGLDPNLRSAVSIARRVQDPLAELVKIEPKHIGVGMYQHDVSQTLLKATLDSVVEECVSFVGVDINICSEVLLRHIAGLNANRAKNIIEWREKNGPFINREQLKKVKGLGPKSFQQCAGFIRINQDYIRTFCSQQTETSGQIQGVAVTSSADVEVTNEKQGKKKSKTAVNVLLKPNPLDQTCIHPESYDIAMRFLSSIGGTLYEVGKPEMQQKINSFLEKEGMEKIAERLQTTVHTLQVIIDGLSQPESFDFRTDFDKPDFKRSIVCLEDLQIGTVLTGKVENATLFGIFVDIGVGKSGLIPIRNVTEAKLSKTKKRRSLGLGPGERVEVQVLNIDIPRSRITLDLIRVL
UniProt P36956: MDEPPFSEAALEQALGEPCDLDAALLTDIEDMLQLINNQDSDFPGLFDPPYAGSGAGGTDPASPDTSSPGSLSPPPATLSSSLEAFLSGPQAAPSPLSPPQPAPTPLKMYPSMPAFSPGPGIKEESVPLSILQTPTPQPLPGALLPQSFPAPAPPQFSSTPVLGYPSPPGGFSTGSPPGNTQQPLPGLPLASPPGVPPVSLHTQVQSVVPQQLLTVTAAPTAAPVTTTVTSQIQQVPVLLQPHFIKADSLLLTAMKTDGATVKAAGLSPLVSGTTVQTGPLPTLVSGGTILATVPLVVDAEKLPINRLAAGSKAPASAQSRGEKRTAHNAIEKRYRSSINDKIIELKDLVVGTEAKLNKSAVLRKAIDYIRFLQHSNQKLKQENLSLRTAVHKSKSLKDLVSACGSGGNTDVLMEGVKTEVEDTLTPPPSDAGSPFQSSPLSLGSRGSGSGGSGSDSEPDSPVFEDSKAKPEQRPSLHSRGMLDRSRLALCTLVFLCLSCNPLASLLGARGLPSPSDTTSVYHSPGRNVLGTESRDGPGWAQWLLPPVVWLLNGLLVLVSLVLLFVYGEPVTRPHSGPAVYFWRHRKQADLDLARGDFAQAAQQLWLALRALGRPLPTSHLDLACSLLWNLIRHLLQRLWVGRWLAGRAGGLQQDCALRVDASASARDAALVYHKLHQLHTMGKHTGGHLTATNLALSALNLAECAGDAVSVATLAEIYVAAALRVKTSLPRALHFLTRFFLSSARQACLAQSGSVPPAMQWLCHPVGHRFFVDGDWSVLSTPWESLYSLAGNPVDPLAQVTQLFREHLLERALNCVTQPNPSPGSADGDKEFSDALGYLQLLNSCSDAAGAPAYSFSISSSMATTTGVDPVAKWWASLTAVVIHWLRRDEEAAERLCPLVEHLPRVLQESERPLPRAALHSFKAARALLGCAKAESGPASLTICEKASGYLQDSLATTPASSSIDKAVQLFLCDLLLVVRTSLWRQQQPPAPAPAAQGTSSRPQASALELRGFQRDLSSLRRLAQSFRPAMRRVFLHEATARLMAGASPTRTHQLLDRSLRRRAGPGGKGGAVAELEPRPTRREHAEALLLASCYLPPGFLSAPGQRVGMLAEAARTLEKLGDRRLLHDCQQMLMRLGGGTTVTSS
UniProt P81877: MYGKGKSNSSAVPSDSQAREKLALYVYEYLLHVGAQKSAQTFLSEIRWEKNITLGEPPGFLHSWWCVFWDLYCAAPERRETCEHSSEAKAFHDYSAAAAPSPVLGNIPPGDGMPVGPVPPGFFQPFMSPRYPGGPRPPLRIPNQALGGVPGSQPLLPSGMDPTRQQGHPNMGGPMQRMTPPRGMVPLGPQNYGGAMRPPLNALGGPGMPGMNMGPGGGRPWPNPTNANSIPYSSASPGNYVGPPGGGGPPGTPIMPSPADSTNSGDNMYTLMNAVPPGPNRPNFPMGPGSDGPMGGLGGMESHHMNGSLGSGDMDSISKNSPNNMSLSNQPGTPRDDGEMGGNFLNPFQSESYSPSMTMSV
UniProt Q9H8P0: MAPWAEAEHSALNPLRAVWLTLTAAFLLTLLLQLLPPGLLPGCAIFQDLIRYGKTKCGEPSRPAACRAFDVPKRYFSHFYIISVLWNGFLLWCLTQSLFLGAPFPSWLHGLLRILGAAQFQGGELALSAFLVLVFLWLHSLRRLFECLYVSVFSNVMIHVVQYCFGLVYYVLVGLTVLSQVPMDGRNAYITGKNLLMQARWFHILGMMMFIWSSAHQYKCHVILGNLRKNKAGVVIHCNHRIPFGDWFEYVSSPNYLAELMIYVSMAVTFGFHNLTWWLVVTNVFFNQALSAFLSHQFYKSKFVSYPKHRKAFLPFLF

Tests used:
Experiment in all cases: log2 fold change, soluble protein after heating vs DMSO (PISA); higher = thermal stabilisation; K562 cells, 10 uM, 30 min; active = over 0.2 and 3.5 SD of the protein, either way, in both replicates (recomputed)
[1] = compound: CNC(=O)C1=CC=CC=C1NC2=NC(=NC=C2Cl)NC3=C(C=C(C=C3)N4CCOCC4)OC
Method in brief: (§1)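 Thermal stability values are relative to control samples and come from duplicates. They are expressed as log2 fold changes. For measurement, K562 cells (2×10^6 cells/mL) received 10 μM compound for 30 min, and aliquots were heated for 3 min over 48°C-58°C, pooled, and extracted at 4°C in PBS with 0.5% NP-40. Soluble protein, the supernatant after 21,000xg for 90 min, was quantified by TMTpro 16plex LC-MS/MS with equalised channel sums.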

[2] = compound: CNC(=O)c1ccc(Nc2ncc(C(F)(F)F)c(NCc3nccnc3N(C)S(C)(=O)=O)n2)cc1 [defactinib]
Method in brief: as §1

[3] = compound: COC(=O)[C@H](CCSC)NC(=O)C1=C(C=C(C=C1)NC[C@H](CS)N)C2=CC=CC=C2
Method in brief: as §1

[4] = compound: COc1cc2nc(-c3cc(F)ccc3O)nc(N[C@@H]3CNC[C@H]3C(C)(C)O)c2cc1OC
Method in brief: as §1

[5] = compound: COc1cc2ncnc(Nc3ccc(F)c(Cl)c3)c2cc1OCCCN1CCOCC1 [gefitinib]
Method in brief: as §1

[6] = compound: CS(=O)(=O)CCNCc1ccc(-c2ccc3ncnc(Nc4ccc(OCc5cccc(F)c5)c(Cl)c4)c3c2)o1 [lapatinib]
Method in brief: as §1

[7] = compound: CS(=O)(=O)N1CCN(Cc2cc3nc(-c4cccc5[nH]ncc45)nc(N4CCOCC4)c3s2)CC1 [pictilisib]
Method in brief: as §1

[8] = compound: CN1CCN(c2nc(C3=C(c4c[nH]c5ccccc45)C(=O)NC3=O)c3ccccc3n2)CC1 [sotrastaurin]
Method in brief: as §1

[9] = compound: CN1CC[C@H](c2c(O)cc(O)c3c(=O)cc(-c4ccccc4Cl)oc23)[C@H](O)C1 [alvocidib]
Method in brief: as §1

[10] = compound: CN1CCc2c(c3ccccc3n2Cc2ccc(C(=O)NO)cc2)C1 [Tubastatin A]
Method in brief: as §1

[11] = compound: CON(C)C(=O)N1N=C(c2cc(F)ccc2F)S[C@@]1(CCCN)c1ccccc1 [filanesib]
Method in brief: as §1

[12] = compound: CO[C@H]1C[C@@H]2CC[C@@H](C)[C@@](O)(O2)C(=O)C(=O)N2CCCC[C@H]2C(=O)O[C@H]([C@H](C)C[C@@H]2CC[C@H](n3cnnn3)[C@H](OC)C2)CC(=O)[C@H](C)/C=C(\C)[C@@H](O)[C@@H](OC)C(=O)[C@H](C)C[C@H](C)/C=C/C=C/C=C/1C [zotarolimus]
Method in brief: as §1

[13] = compound: COc1cc(C(=O)O)ccc1NC(=O)[C@@H]1N[C@@H](CC(C)(C)C)[C@](C#N)(c2ccc(Cl)cc2F)[C@H]1c1cccc(Cl)c1F [idasanutlin]
Method in brief: as §1

[14] = compound: COC1=CC=C(C=C1)CN2C=CC3=C2C=C(C=C3)C(=O)NO
Method in brief: as §1

[15] = compound: CN1CCN(CCOc2cc(OC3CCOCC3)c3c(Nc4c(Cl)ccc5c4OCO5)ncnc3c2)CC1 [saracatinib]
Method in brief: as §1

[16] = compound: CNc1nc(-c2ccc3c(N)n[nH]c3c2)cc(N2C[C@@H](C(=O)NC3CCCCC3)CC[C@H]2C)n1
Method in brief: as §1

[17] = compound: COc1cc(Nc2ncc3c(n2)-c2ccc(Cl)cc2C(c2c(F)cccc2OC)=NC3)ccc1C(=O)O [alisertib]
Method in brief: as §1

[18] = compound: COc1cccc2cc(-c3nc([C@H]4CC[C@H](C(=O)O)CC4)n4ncnc(N)c34)[nH]c12
Method in brief: as §1

[19] = compound: CNCc1ccc(-c2[nH]c3cc(F)cc4c3c2CCNC4=O)cc1 [rucaparib]
Method in brief: as §1

[20] = compound: COC(=O)N[C@@H](C)CNc1nccc(-c2cn(C(C)C)nc2-c2cc(Cl)cc(NS(C)(=O)=O)c2F)n1 [encorafenib]
Method in brief: as §1

Measured: log2 fold change

STC2 (UniProt O76061)
inactive: [1] 0.049 | [2] 0.252 | [3] 0.109 | [4] -0.191 | [5] 0.251 | [6] 0.046 | [7] 0.171

SPICE1 (UniProt Q8N0Z3)
inactive: [5] 0.095 | [7] 0.527

SPTAN1 isoform 3 (UniProt Q13813)
inactive: [2] 0.08 | [3] 0.259

ST3GAL4 isoform 4 (UniProt Q11206)
inactive: [8] 0.12 | [9] -0.09 | [10] -0.075 | [1] 0.004 | [11] -0.026 | [12] -0.149 | [13] -0.074 | [5] -0.012

ST8SIA6 (UniProt P61647)
inactive: [8] 0.027 | [2] 0.046 | [3] 0.221 | [14] -0.244 | [11] -0.031 | [13] 0.152 | [7] -0.03

ST3GAL1 (UniProt Q11201)
inactive: [15] 0.061 | [9] -0.344 | [16] 0.08 | [12] 0.015 | [4] 0.074 | [6] 0.174

SS18L1 (UniProt O75177)
inactive: [4] 0.05 | [6] -0.073

SSR2 (UniProt P43308)
inactive: [17] 0.141 | [5] 0.079 | [18] -0.116

STK24 (UniProt Q9Y6E0)
inactive: [8] 0.082 | [9] -0.02 | [10] -0.016 | [1] -0.007 | [2] -0.028 | [19] -0.041 | [16] -0.032 | [20] 0.033 | [3] 0.031 | [14] -0.012 | [11] -0.075 | [12] -0.003 | [13] -0.025 | [17] -0.021 | [4] 0.089 | [5] -0.028 | [18] 0.044 | [6] -0.038 | [7] -0.025

STK19 (UniProt P49842)
inactive: [13] -0.131

STAB1 (UniProt Q9NY15)
inactive: [15] -0.016 | [9] 0.082 | [1] -0.036 | [2] -0.107 | [16] -0.072 | [3] 0.003 | [14] -0.29 | [12] 0.061 | [17] 0.288 | [4] 0.245 | [18] 0.061 | [6] -0.289 | [7] -0.029

Quoted from the listing (2 entries):
SS18L1 (UniProt O75177)
inactive: [4] 0.05 | [6] -0.073

SSR2 (UniProt P43308)
inactive: [17] 0.141 | [5] 0.079 | [18] -0.116

Next part:

SRRD (UniProt Q9UH36)
inactive: [8] 0.05 | [10] -0.171 | [1] 0.102 | [19] 0.037 | [20] -0.034 | [14] -0.08 | [11] -0.038 | [13] -0.375 | [17] -0.224 | [4] -0.047 | [5] 0.192 | [18] 0 | [6] 0.001

SRXN1 (UniProt Q9BYN0)
active: [7] -0.562
inactive: [8] 0.019 | [10] 0.209 | [2] -0.283 | [19] 0.111 | [20] -0.008 | [3] 0.022 | [14] 0.406 | [11] 0.076 | [12] 0.022 | [13] -0.028 | [17] 0.098 | [4] -0.036 | [5] 0.012 | [18] 0.001 | [6] 0.151

SPRR1B (UniProt P22528)
inactive: [19] -0.106 | [20] 0.038 | [17] 2.35 | [18] 0.011

SPINT1 (UniProt O43278)
inactive: [8] 0.183 | [1] -0.038 | [2] 0.064 | [3] 0.034 | [14] -0.02 | [11] -0.037 | [4] 0.11 | [6] -0.148 | [7] 0.115

SPPL3 (UniProt Q8TCT6)
inactive: [1] 0.142 | [17] 0.085 | [18] 0

STAR (UniProt P49675)
inactive: [2] -0.158 | [3] -0.086 | [17] 0.211 | [18] -0.159

SSX1 (UniProt Q16384)
inactive: [9] 0.107 | [12] 0.151 | [13] 0.324 | [4] -0.214 | [6] 0.127

SPRED1 (UniProt Q7Z699)
inactive: [9] -0.22 | [2] 0.054 | [3] -0.153 | [12] -0.088 | [13] 0.052

SRGAP1 (UniProt Q7Z6B7)
inactive: [10] 0.138 | [2] -0.201 | [3] 0.032 | [14] 0.019 | [17] -0.162 | [4] 0.054 | [5] -0.032 | [18] 0.033 | [6] -0.056 | [7] 0.288

SPATS2 (UniProt Q86XZ4)
inactive: [15] 0.064 | [9] 0.328 | [1] -0.086 | [2] 0.091 | [19] 0.033 | [16] 0.326 | [20] -0.07 | [3] 0.188 | [12] -0.074 | [7] -0.053

STIP1 (UniProt H0YGI8)
inactive: [7] 0.101

SSH2 (UniProt Q76I76)
inactive: [8] 0.031 | [11] 0.015

SPIN4 (UniProt Q56A73)
inactive: [1] -0.199
active: [14] -1.43

SSB (UniProt E7ERC4)
inactive: [15] -0.05 | [2] -0.205 | [16] 0.018 | [3] -0.092 | [17] 0.494 | [18] -0.37 | [7] -0.086

SPIRE1 (UniProt Q08AE8)
active: [14] -0.509
inactive: [10] 0.141 | [1] -0.166 | [2] 0.047 | [19] 0.035 | [20] -0.105 | [3] -0.074 | [12] -0.051 | [13] -0.023 | [17] -0.033 | [5] -0.013 | [18] 0.049 | [7] 0.188

Two entries picked at random from those above, as already listed:
SSB (UniProt E7ERC4)
inactive: [15] -0.05 | [2] -0.205 | [16] 0.018 | [3] -0.092 | [17] 0.494 | [18] -0.37 | [7] -0.086

STIP1 (UniProt H0YGI8)
inactive: [7] 0.101

Going on with the list:

SRC isoform 2 (UniProt P12931)
inactive: [8] -0.167 | [10] -0.108 | [1] -0.069 | [2] -0.077 | [19] -0.343 | [16] 0.007 | [20] 0.082 | [3] 0.188 | [14] 0.197 | [11] 0.229 | [12] -0.123 | [13] 0.119 | [17] 0.01 | [4] 0.017 | [18] 0.219 | [6] 0.088 | [7] 0.113

SPRR2B (UniProt P35325)
inactive: [1] 0.141 | [2] 0.037 | [19] -0.034 | [20] 0.008 | [3] 0.196 | [17] 0.472 | [5] 0.092 | [18] 0.047

SSBP4 (UniProt U3KPY3)
inactive: [2] -0.189 | [3] -0.121 | [17] 0.023 | [18] 0.212

STK16 (UniProt O75716)
inactive: [1] 0.209 | [14] -0.033

SRCIN1 (UniProt Q9C0H9)
inactive: [1] -0.004 | [2] -0.065 | [3] -0.057 | [13] -0.259 | [7] 0.125

SPRED2 (UniProt Q7Z698)
inactive: [9] -0.073 | [12] -0.048 | [13] 0.195

SREBF2 (UniProt Q12772)
inactive: [8] -0.017 | [1] -0.015 | [2] 0.005 | [19] 0.022 | [20] -0.018 | [3] 0.024 | [14] -0.077 | [11] 0.07 | [17] 0.653 | [5] -0.04 | [18] 0.04

SRBD1 (UniProt Q8N5C6)
inactive: [7] -0.032

SREBF1 isoform 4 (UniProt P36956)
inactive: [15] 0.077 | [1] 0.033 | [19] -0.164 | [16] 0.045 | [20] 0.044 | [14] -0.089 | [17] -0.014 | [18] 0.098

STK17B (UniProt O94768)
inactive: [14] 0.01
active: [1] -1.03

STIM2 isoform 2 (UniProt Q9P246)
inactive: [10] -0.11 | [1] 0.011 | [2] -0.073 | [19] 0.234 | [20] -0.008 | [3] -0.137 | [13] 0.172 | [4] 0.047 | [5] -0.135 | [6] -0.186

SSBP2 (UniProt P81877)
inactive: [9] -0.165 | [19] 0 | [20] -0.051 | [12] -0.015 | [17] 0.035 | [4] -0.022 | [18] 0.092 | [6] -0.398 | [7] -0.015

SRD5A3 (UniProt Q9H8P0)
inactive: [1] -0.027 | [19] 0.032 | [20] 0.156 | [14] 0.061 | [13] -0.066 | [17] -0.14 | [5] -0.002 | [18] 0.095 | [7] 0.022
